Results from patent US20050042220A1 (GENETICS INSTITUTE, published 2005).
These are yes or no findings as the source states them, for the method shown. Some entries that bind do so weakly or less than the wild type. Where a sequence is shown, tags or fusion partners need not be part of it. One block for each binder: values may come before it.

Tests used:
[1] = target: T1, biotinylated N terminal His/Flag tagged human IL-22 (human); assay: ELISA: bio-IL-22 (1 ug/ml) captured on streptavidin plates; receptor Fc in diluted CHO conditioned medium titrated; goat anti-human IgG-HRP, A450
T1 sequence (chain, biotinylated with EZ-Link Sulfo-NHS-Biotin (sites not stated)): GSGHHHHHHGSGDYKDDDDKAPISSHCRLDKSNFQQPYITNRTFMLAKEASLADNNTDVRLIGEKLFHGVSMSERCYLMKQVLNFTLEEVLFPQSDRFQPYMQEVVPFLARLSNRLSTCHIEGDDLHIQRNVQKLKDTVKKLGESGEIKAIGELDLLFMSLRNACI

[2] = target: T1, biotinylated N terminal His/Flag tagged human IL-22 (human); assay: ELISA, bio-IL-22 on streptavidin plates, anti-hIgG-HRP (FIG. 6B)
[3] = target: T1, biotinylated N terminal His/Flag tagged human IL-22 (human); assay: ELISA, bio-IL-22 on streptavidin plates (FIG. 6B)
[4] = target: T1, biotinylated N terminal His/Flag tagged human IL-22 (human); assay: blocking ELISA: IL-22BP-Fc pre-incubated 30 min with bio-IL-22 (30 ng/ml), added to 50 ng/ml IL-22R-Fc captured on anti-human IgG wells; bound bio-IL-22 read with streptavidin-HRP, A450; blocked partner IL-22R-Fc
[5] = target: T1, biotinylated N terminal His/Flag tagged human IL-22 (human); assay: blocking ELISA: IL-22BP-Fc pre-incubated 30 min with bio-IL-22 (5 ng/ml), added to 50 ng/ml total Fc of co-expressed IL-22R-Fc/IL-10R2-Fc captured on anti-human IgG wells; bound bio-IL-22 read with streptavidin-HRP, A450; blocked partner IL-22R-Fc/IL-10R2-Fc
[6] = target: T2, complex of bio-IL-22 bound to immobilized IL-22R-Fc (human) (UniProt Q8N6P7); assay: ELISA, IL-10R2-Fc added after bio-IL-22 had bound captured IL-22R-Fc; read-out is retained bio-IL-22 (FIG. 9B)
T2 sequence (chain, biotinylated with EZ-Link Sulfo-NHS-Biotin (sites not stated)) 1: T1 sequence (chain, biotinylated with EZ-Link Sulfo-NHS-Biotin (sites not stated))
T2 sequence (chain, biotinylated with EZ-Link Sulfo-NHS-Biotin (sites not stated)) 2: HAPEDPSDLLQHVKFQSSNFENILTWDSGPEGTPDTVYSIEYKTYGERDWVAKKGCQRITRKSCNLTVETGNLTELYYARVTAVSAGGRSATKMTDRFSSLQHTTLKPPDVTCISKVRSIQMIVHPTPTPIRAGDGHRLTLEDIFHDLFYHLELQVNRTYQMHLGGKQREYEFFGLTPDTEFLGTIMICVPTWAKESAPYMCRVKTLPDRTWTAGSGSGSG

[7] = target: T2, complex of bio-IL-22 bound to immobilized IL-22R-Fc (human); assay: indirect ELISA: 50 ng/ml IL-22R-Fc captured on anti-human IgG wells, blocked with 100 ug/ml human IgG; IL-10R2-Fc titrated together with bio-IL-22 (30 ng/ml); bound bio-IL-22 read with streptavidin-HRP, A450 (IL-10R2-Fc itself is not detected)
[8] = target: T2, complex of bio-IL-22 bound to immobilized IL-22R-Fc (human); assay: ELISA, captured IL-22R-Fc, IL-10R2-Fc added together with bio-IL-22; read-out is bound bio-IL-22 (FIG. 9A)
[9] = target: T2, complex of bio-IL-22 bound to immobilized IL-22R-Fc (human); assay: indirect ELISA: 50 ng/ml IL-22R-Fc captured on anti-human IgG wells, bio-IL-22 (30 ng/ml) bound, washed, then 1 h with titrated IL-10R2-Fc; retained bio-IL-22 read with streptavidin-HRP, A450 (IL-10R2-Fc itself is not detected)

binding [1]: binds
binding [2]: binds
binding [3]: binds
B1: human IL-22R extracellular domain-Fc fusion homodimer (Fc fusion)
chain: T2 sequence (chain, biotinylated with EZ-Link Sulfo-NHS-Biotin (sites not stated)) 2
notes: extracellular domain; Used as CHO conditioned medium, not purified; also called IL-22R-Fc; IL-22RECD-Fc; not shown: human IgG1 Fc

binding [4]: binds
binding [5]: binds
B2: human IL-22 binding protein-Fc fusion (Fc fusion)
chain: TQSTHESLKPQRVQFQSRNFHNILQWQPGRALTGNSSVYFVQYKIYGQRQWKNKEDCWGTQELSCDLTSETSDIQEPYYGRVRAASAGSYSEWSMTPRFTPWWETKIDPPVMNITQVNGSLLVILHAPNLPYRYQKEKNVSIEDYYELLYRVFIINNSLEKEQKVYEGAHRAVEIEALTPHSSYCVVAEIYQPMLDRRSQRSEERCVEIPAGSGSGSG
notes: Fc fusion homodimer, used as CHO conditioned medium; also called IL-22BP-Fc; huIL22BP-huFc; not shown: human IgG1 Fc

binding [6]: binds
binding [7]: binds
binding [8]: binds
binding [9]: binds
B3: human IL-10R2 extracellular domain-Fc fusion homodimer (Fc fusion)
chain: MVPPPENVRMNSVNFKNILQWESPAFAKGNLTFTAQYLSYRIFQDKCMNTTLTECDFSSLSKYGDHTLRVRAEFADEHSDWVNITFCPVDDTIIGPPGMQVEVLADSLHMRFLAPKIENEYETWTMKNVYNSWTYNVQYWKNGTDEKFQITPQYDFEVLRNLEPWTTYCVQVRGFLPDRNKAGEWSEPVCEQTTHDETVPSAGSGSGSG
notes: extracellular domain; Used as CHO conditioned medium, not purified; also called IL-10R2-Fc; IL-10R2ECD-Fc; not shown: human IgG1 Fc
